Measurements as given in publication doi:10.1101/2022.09.25.509378.
These are yes or no findings as the source states them, for the method shown. Some entries that bind do so weakly or less than the wild type.

Biological target: T1, bacteriophage λ terminase large subunit (TerL) (bacteriophage λ) (UniProt P03708)
T1 sequence: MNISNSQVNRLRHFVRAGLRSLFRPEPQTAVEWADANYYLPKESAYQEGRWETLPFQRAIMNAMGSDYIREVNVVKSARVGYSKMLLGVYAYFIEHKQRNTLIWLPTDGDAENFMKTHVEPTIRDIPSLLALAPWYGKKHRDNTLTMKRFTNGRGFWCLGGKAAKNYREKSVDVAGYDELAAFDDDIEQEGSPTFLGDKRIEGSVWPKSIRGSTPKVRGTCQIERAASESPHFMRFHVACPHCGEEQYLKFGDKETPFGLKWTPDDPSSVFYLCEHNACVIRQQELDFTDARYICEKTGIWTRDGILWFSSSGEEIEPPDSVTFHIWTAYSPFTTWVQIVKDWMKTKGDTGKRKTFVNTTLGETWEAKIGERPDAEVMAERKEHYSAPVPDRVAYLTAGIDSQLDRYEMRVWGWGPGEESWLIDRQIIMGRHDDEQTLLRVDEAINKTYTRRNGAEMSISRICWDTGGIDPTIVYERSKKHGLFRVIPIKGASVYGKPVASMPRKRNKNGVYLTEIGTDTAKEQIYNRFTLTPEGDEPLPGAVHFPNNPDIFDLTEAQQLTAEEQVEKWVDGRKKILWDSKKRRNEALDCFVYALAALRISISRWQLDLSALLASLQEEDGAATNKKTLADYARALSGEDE
Test: native MS

B1: bacteriophage λ terminase small subunit (TerS) (protein, UniProt P03707 1-181)
chain: MEVNKKQLADIFGASIRTIQNWQEQGMPVLRGGGKGNEVLYDSAAVIKWYAERDAEIENEKLRREVEELRQASEADLQPGTIEYERHRLTRAQADAQELKNARDSAEVVETAFCTFVLSRIAGEIASILDGLPLSVQRRFPELENRHVDFLKRDIIKAMNKAAALDELIPGLLSEYIEQSG
With B1 the binding was “binds”.
